Reference: publication PMC8621594
No constants are given. Whether binding was seen depends on the method and setting. Each block holds one binder with its values, some of them ahead of it.

How the values were obtained:
[1] = target: T1, Ruconest® (conestat alfa), human recombinant C1 inhibitor purified from the milk of transgenic rabbits (human), P05155; experiment: SEC; TSKgel G3000SWXL, 0.5 mL/min, PBS with acetonitrile to 5%, pH 7.4, UV at 214 nm; relative content of monomer, fragments and aggregates; both purified; conditions: remark: other sources report otherwise
T1 chain: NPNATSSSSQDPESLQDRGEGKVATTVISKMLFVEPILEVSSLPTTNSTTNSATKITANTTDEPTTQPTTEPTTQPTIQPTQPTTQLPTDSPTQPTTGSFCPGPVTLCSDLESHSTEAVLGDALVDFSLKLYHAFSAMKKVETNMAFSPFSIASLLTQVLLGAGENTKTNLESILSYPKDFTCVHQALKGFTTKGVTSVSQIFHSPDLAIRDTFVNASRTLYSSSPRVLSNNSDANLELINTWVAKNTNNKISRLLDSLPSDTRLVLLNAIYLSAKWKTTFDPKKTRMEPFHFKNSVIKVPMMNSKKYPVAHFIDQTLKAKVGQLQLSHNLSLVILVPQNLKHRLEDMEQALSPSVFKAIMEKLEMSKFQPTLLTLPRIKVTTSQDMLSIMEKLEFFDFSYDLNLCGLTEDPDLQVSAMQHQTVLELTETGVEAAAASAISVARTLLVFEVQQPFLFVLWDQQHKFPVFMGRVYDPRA

[2] = target: T2, Berinert®, plasma-derived human C1 inhibitor (human), P05155; experiment: as above; conditions: remark: other sources report otherwise
T2 chain: T1 chain

binding [1]: no binding
B1: Ruconest^® (conestat alfa), human recombinant C1 inhibitor purified from the milk of transgenic rabbits, P05155 23-500 (protein)
chain: T1 chain
modifications: here or on the partner: glycosylated; 8.0 ± 0.6 mol Neu5Ac/mol protein; glycosylated; 8.0 ± 0.6 mol Neu5Ac/mol protein

binding [2]: no binding
B2: Berinert^®, plasma-derived human C1 inhibitor, P05155 23-500 (protein)
chain: T1 chain
modifications: here or on the partner: glycosylated; 35.0 ± 1.0 mol Neu5Ac/mol protein; glycosylated; 35.0 ± 1.0 mol Neu5Ac/mol protein
